In US20110177578:
For some of these results: Construct, isoform or probe ends are uncertain for at least one entry.

The chains behind the UniProt entries cited, without tags or fusion partners. Residues count along the entry.
UniProt Q16552, 24-155: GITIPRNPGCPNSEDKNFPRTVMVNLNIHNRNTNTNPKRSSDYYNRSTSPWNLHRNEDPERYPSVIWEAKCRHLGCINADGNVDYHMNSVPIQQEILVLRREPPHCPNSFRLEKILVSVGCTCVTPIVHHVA

Key:
[1] = molecular target: IL-17 (IL-17A) (Homo sapiens) (UniProt Q16552); experiment: inhibition of the protein; details: 2'-F pyrimidines, purified recombinant protein, protein details: Peprotech
[2] = molecular target: IL-17 (IL-17A) (Homo sapiens) (UniProt Q16552); experiment: activity in cells; details: 2'-F pyrimidines; dose-dependent suppression of IL-17 (40 ng/ml)-induced IL-6 in NHDF cells; purified recombinant protein; protein details: Peprotech; variant of SEQ 30
[3] = variant of SEQ 44, dose not given here
[4] = variant of SEQ 30, dose not given here
[5] = variant of SEQ 39, dose not given here

GGUCUAGCCGGAGGAGUCAGUAAUCGG [SEQ 53]
functional effect of the aptamer [1, 3]: active

GGGAGCAGGAGAGAGGUCAGAUGUAUAGCGAAGUCAUUGAGCGACAAAGCCGGCCUAUGCGUGCUAGUGUGA [SEQ 36]
functional effect of the aptamer ([1]; dose not given here): active

CAGAUGGGCAGCAGAGGAUAGCGAAGUCAUUGAGCGCCUAUGCGUGCUAGUGUG [SEQ 37]
functional effect of the aptamer ([1]; variant of SEQ 1 (Apt1), dose not given here): active

AGAGGUCAGAUGGUCUAGCCGGAGGAGUCAGUAAUCGGUAGACCUAUGCGUG [SEQ 43]
functional effect of the aptamer [1, 4]: active

GCAGAGGAUAGCGAAGUCAUUGAGCGCCUAUGC [SEQ 39]
functional effect of the aptamer ([1]; variant of SEQ 38, dose not given here): active

GGUCUAGCCGGAGGAGUCAGUAAUCGGUAGACC [SEQ 44-5]
functional effect of the aptamer ([1]; 2'-OMe at a12,g13, variant of SEQ 44, dose not given here): active

CUAGCCGGAGGAGUCAGUAAUCGGUAG [SEQ 54]
functional effect of the aptamer [1, 3]: active

GGUCUAGCCGGAGGAGUCAGUAAUCGGUAGACC [SEQ 44]
functional effect of the aptamer [2]: active
functional effect of the aptamer [1, 4]: active

GGUCUAGCCGGAGGAGUCAAUAAUCGGUAGACC [SEQ 51]
functional effect of the aptamer [1, 3]: active

GGUCUAGCCGGAGGAGUCAGUAAUCGGUAGACC [SEQ 44-8]
functional effect of the aptamer ([1]; 5' PEG40 (SUNBRIGHT GL2-400GS2), 3' idT, variant of SEQ 44, dose not given here): active

GGGAGCAGGAGAGAGGUCAGAUGGGCAGCGGAGGAUGGCGAAGUCAUUGGGCGCCUAUGCGUGCUGGUGGAG [SEQ 32]
functional effect of the aptamer ([1]; dose not given here): active

GGGAGCAGGAGAGAGGUCAGAUGGAGGAGACAGUGAUCGUUGACCCACCGGGUCCUAUGCGUGCUAGUGUGA [SEQ 34]
functional effect of the aptamer ([1]; dose not given here): active

GGGAGCAGGAGAGAGGUCAGAUGGUCUAGCCGGAGGAGUCAGUAAUCGGUAGACCUAUGCGUGCUAGUGUGA [SEQ 30]
functional effect of the aptamer ([1]; dose not given here): active

GGGGAUAGCGAAGUCAUUGAGCGCCCC [SEQ 41]
functional effect of the aptamer [1, 5]: active

GGAUAGCGAAGUCAUUGAGCGCC [SEQ 40]
functional effect of the aptamer [1, 5]: active

GGUCUAGCCGGAGGAGUCAGUAAUCGGUAGACC [SEQ 44-6]
functional effect of the aptamer ([1]; 2'-OMe at g14,a15, variant of SEQ 44, dose not given here): active

GGUCUACCGGAGGAGUCAGUAAUCGGUAGACC [SEQ 49]
functional effect of the aptamer [1, 3]: active

GGGAGCAGGAGAGAGGUCAGAUGGAAGUGGAGUCAGAUAUAGCAAUAUUAUGACCUAUGCGUGCUAGUGUGA [SEQ 31]
functional effect of the aptamer ([1]; dose not given here): active

GGUCUAGCCGGAGGAGUCAGUAAUCGGUAGACC [SEQ 44-7]
functional effect of the aptamer ([1]; 2'-OMe at a22,a23 (printed sequence also shows 2'-OMe at a15), variant of SEQ 44, dose not given here): active

GGGAGCAGGAGAGAGGUCAGAUGAGCGCCAUAGGGUAGAGAAGCCAUUGAUCACCUAUGCGUGCUAGUGUGA [SEQ 5]
functional effect of the aptamer ([1]; dose not given here): active

GGUCUAGCCGGAGGAGUCAGUAAUCGGUAGACC [SEQ 44-4]
functional effect of the aptamer ([1]; 2'-OMe at g10,g11, variant of SEQ 44, dose not given here): active

GGGAGCAGGAGAGAGGUCAGAUGGUGCACAUGGGAUAGCGAAGUCAUUGAGCGCCUAUGCGUGCUAGUGUGA [SEQ 2]
functional effect of the aptamer ([1]; dose not given here): active

GUGCACAUGGGAUAGCGAAGUCAUUGAGCGCCUAUGCGUGC [SEQ 42]
functional effect of the aptamer ([1]; variant of SEQ 2, dose not given here): active

GGGAGCAGGAGAGAGGUCAGAUGGGCAGCAGAGGAUAGCGAAGUCAUUGAGCGCCUAUGCGUGCUAGUGUGA [SEQ 1 (Apt1)]
functional effect of the aptamer ([1]; inhibits IL-17 (0.11 uM) binding to IL-17R-Fc by SPR, 0.33 uM aptamer): active

GGGAGCAGGAGAGAGGUCAGAUGGUGAUGCAUAGGAGUGGAGUCAGAUAUAGCCCUAUGCGUGCUAGUGUGA [SEQ 6]
functional effect of the aptamer ([1]; dose not given here): active

GGGAGCAGGAGAGAGGUCAGAUGGAGGAGCCAGUGAUCGUUGACCUCAAUGCACCUAUGCGUGCUAGUGUGA [SEQ 33]
functional effect of the aptamer ([1]; dose not given here): active

GGUCUAGCCGGAGGAGUCAGUAAUCGGUAGACC [SEQ 44-2]
functional effect of the aptamer ([1]; 2'-OMe at a15,g16, variant of SEQ 44, dose not given here): active

GGUCUAGCCGGAGAAGUCAGUAAUCGGUAGACC [SEQ 50]
functional effect of the aptamer [1, 3]: active

GGGAGCAGGAGAGAGGUCAGAUGUGUAAGGUCGGAAGUCAUGAACGGCCCGGACCUAUGCGUGCUAGUGUGA [SEQ 3]
functional effect of the aptamer ([1]; dose not given here): active

GGUCUAGCCGGAGGAGUCAGUAAUCGGUAGACC [SEQ 44-1]
functional effect of the aptamer ([1]; 2'-OMe at a19,g20, variant of SEQ 44, dose not given here): active

GGGAGCAGGAGAGAGGUCAGAUGCUAUAGCGAAGUCAUUGAGCGAGACAUAGGCCUAUGCGUGCUAGUGUGA [SEQ 4]
functional effect of the aptamer ([1]; dose not given here): active

GGGGUAGCCGGAGGAGUCAGUAAUCGGUACCCC [SEQ 52]
functional effect of the aptamer ([1]; deoxynucleotides at G1-G4 and C30-C33, variant of SEQ 44, dose not given here): active

GGUCUAGCCGGAGGAGUCAGUAAUCGGUAGACC [SEQ 44-3]
functional effect of the aptamer ([1]; 2'-OMe at a6,g7, variant of SEQ 44, dose not given here): active

GGGAGCAGGAGAGAGGUCAGAUGCGAUAGCGAAGUCAUUGAGCGCGUGUCCAACCUAUGCGUGCUAGUGUGA [SEQ 29]
functional effect of the aptamer ([1]; dose not given here): active

GGGAGCAGGAGAGAGGUCAGAUGGAGGAGGCAGUAAUCGUUGACUGGUAAACCCCUAUGCGUGCUAGUGUGA [SEQ 35]
functional effect of the aptamer ([1]; dose not given here): active

GCAGCAGAGGAUAGCGAAGUCAUUGAGCGCCUAUGCGUGC [SEQ 38]
functional effect of the aptamer ([1]; variant of SEQ 37, dose not given here): active
